# PMC8025031
# Assays:
# Experiment in all cases: EMSA
# [1] = target: DDX43 D399A (Bombyx mori (BmN4 cDNA)) (UniProt H9JL58); details: 1 mM Mg2+, EMSA: 25 mM HEPES-KOH pH 7.3, 50 mM K-acetate, 1 mM Mg-acetate, 1 mM DTT, 5 nM RNA, 0.5 uM His-DDX43, +/-0.1 mM ATP, 26 C 10 min. Ago3 release: 20 mM HEPES-KOH pH 7.3, recombinant protein, protein details: His (pET-47b), label: 5' 32P
# [2] = target: DDX43 E400Q (Bombyx mori (BmN4 cDNA)) (UniProt H9JL58); details: 1 mM Mg2+, EMSA: 25 mM HEPES-KOH pH 7.3, 50 mM K-acetate, 1 mM Mg-acetate, 1 mM DTT, 5 nM RNA, 0.5 uM His-DDX43, +/-0.1 mM ATP, 26 C 10 min. Ago3 release: 20 mM HEPES-KOH pH 7.3, recombinant protein, protein details: His (pET-47b), label: 5' 32P
# [3] = target: DDX43 WT (Bombyx mori (BmN4 cDNA)) (UniProt H9JL58); details: EMSA: 25 mM HEPES-KOH pH 7.3, 50 mM K-acetate, 1 mM Mg-acetate, 1 mM DTT, 5 nM RNA, 0.5 uM His-DDX43, +/-0.1 mM ATP, 26 C 10 min. Ago3 release: 20 mM HEPES-KOH pH 7.3, recombinant protein, protein details: His (pET-47b), label: 5' 32P
# [4] = test system: DDX43 deltaKH (Bombyx mori (BmN4 cDNA)); details: 1 mM Mg2+ (hardly bound), EMSA: 25 mM HEPES-KOH pH 7.3, 50 mM K-acetate, 1 mM Mg-acetate, 1 mM DTT, 5 nM RNA, 0.5 uM His-DDX43, +/-0.1 mM ATP, 26 C 10 min. Ago3 release: 20 mM HEPES-KOH pH 7.3, recombinant protein, protein details: His (pET-47b), label: 5' 32P
sequence,measurement,setting,value
GGUCUGAUUUCGAUCUGGUUCCCUGGAACAAAAGUGGCAG [40nt RNA],binding result,[1]; 0.1 mM ATP,binds more weakly
same,binding result,[1]; no ATP,binds more weakly
same,binding result,[2]; 0.1 mM ATP,binds
same,binding result,[2]; no ATP,no binding
same,binding result,"[3]; 0.1 mM ATP, 1 mM Mg2+ (dissociated)",no binding
same,binding result,"[3]; no ATP, 1 mM Mg2+",binds
same,binding result,[4]; 0.1 mM ATP,no binding
same,binding result,[4]; no ATP,no binding

# The exact form of at least one protein or probe is not confirmed. For some assays here: No signal at the amounts used counts as a negative. For some assays here: A weaker result is weaker than the reference pair of the same experiment.
